Results are given in words; binding and its absence hold for the method and conditions named. For part of these data: Binding seen in cells or lysates may run through a third protein. Some binding calls cover weakened binding; strength is not graded here.
Experiments:
[1] = biological target: eIF4E (human (endogenous in HeLa)) (UniProt P06730); experiment: selective 80S ribosome footprinting
[2] = biological target: eIF3B (human (endogenous in HeLa)) (UniProt P55884); experiment: selective 80S ribosome footprinting
[3] = biological target: eIF4G1 (human (endogenous in HeLa)) (UniProt Q04637); experiment: selective 80S ribosome footprinting
[4] = biological target: eIF3B (human (endogenous in HeLa)) (UniProt P55884); experiment: co-IP
[5] = biological target: eIF4E (human (endogenous in HeLa)) (UniProt P06730); experiment: co-IP
[6] = biological target: eIF4G1 (human (endogenous in HeLa)) (UniProt Q04637); experiment: co-IP

Amino acid sequences for entries named in this document (tags omitted).
UniProt P06730: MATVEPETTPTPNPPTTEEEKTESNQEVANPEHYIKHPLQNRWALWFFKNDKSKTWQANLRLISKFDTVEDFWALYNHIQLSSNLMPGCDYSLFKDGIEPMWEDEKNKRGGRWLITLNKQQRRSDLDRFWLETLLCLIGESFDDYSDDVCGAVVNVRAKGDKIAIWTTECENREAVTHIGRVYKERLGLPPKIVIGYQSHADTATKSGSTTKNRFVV
UniProt P55884: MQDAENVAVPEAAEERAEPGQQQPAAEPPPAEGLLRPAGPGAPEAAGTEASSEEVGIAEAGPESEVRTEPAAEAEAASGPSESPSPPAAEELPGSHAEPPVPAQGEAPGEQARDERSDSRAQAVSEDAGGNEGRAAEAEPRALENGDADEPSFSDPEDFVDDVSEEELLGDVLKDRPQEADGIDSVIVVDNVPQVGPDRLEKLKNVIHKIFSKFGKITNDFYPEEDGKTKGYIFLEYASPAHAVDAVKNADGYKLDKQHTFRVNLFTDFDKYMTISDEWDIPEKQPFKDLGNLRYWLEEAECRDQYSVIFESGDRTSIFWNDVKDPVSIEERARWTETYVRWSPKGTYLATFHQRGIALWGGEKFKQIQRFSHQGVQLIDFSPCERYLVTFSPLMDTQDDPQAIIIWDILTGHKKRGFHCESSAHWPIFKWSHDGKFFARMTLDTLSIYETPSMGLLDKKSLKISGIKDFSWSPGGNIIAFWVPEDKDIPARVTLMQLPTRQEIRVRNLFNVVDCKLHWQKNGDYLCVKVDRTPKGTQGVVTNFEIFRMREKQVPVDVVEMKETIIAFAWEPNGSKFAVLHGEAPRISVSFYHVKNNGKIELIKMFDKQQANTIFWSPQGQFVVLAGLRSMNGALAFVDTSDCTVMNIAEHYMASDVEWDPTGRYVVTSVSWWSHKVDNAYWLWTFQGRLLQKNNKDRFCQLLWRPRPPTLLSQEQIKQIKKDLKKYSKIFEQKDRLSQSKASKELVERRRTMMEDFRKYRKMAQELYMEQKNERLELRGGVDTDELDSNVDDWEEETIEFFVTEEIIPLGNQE
UniProt Q04637: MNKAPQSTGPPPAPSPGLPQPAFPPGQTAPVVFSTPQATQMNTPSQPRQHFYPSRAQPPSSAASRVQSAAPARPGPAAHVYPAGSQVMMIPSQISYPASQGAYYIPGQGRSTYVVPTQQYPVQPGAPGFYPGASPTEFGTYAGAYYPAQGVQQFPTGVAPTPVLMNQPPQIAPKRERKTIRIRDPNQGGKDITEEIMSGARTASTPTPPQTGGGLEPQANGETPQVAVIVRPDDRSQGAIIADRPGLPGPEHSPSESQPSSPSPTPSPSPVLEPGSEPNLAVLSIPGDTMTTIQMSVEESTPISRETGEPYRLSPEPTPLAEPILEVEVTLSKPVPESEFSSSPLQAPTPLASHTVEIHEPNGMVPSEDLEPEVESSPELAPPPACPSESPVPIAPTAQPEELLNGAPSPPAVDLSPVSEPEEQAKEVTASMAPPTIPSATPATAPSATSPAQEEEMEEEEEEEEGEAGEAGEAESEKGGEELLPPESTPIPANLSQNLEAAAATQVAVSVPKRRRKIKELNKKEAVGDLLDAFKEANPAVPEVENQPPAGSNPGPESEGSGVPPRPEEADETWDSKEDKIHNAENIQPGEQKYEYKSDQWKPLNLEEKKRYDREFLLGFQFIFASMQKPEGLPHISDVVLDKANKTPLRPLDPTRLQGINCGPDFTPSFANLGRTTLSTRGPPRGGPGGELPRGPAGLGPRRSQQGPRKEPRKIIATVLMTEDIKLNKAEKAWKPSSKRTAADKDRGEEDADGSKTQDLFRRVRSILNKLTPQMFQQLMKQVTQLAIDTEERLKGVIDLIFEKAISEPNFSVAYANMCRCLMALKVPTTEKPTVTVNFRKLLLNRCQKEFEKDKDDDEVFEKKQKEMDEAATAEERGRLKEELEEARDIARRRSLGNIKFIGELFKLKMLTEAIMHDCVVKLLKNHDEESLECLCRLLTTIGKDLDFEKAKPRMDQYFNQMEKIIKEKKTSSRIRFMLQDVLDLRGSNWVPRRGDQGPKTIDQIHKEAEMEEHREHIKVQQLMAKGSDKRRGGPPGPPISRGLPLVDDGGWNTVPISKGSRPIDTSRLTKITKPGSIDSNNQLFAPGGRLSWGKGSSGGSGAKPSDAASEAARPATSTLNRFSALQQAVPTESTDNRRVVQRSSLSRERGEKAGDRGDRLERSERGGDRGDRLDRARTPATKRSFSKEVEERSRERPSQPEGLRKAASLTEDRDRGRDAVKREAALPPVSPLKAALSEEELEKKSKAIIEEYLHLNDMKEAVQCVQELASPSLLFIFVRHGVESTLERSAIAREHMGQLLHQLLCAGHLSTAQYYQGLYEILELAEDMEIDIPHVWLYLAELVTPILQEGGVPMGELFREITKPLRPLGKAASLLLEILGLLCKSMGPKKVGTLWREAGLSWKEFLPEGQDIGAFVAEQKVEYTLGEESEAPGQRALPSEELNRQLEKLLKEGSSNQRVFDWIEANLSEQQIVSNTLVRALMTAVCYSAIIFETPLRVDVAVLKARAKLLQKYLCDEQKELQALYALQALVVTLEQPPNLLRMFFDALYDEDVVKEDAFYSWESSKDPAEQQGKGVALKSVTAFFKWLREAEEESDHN
UniProt Q9Y520: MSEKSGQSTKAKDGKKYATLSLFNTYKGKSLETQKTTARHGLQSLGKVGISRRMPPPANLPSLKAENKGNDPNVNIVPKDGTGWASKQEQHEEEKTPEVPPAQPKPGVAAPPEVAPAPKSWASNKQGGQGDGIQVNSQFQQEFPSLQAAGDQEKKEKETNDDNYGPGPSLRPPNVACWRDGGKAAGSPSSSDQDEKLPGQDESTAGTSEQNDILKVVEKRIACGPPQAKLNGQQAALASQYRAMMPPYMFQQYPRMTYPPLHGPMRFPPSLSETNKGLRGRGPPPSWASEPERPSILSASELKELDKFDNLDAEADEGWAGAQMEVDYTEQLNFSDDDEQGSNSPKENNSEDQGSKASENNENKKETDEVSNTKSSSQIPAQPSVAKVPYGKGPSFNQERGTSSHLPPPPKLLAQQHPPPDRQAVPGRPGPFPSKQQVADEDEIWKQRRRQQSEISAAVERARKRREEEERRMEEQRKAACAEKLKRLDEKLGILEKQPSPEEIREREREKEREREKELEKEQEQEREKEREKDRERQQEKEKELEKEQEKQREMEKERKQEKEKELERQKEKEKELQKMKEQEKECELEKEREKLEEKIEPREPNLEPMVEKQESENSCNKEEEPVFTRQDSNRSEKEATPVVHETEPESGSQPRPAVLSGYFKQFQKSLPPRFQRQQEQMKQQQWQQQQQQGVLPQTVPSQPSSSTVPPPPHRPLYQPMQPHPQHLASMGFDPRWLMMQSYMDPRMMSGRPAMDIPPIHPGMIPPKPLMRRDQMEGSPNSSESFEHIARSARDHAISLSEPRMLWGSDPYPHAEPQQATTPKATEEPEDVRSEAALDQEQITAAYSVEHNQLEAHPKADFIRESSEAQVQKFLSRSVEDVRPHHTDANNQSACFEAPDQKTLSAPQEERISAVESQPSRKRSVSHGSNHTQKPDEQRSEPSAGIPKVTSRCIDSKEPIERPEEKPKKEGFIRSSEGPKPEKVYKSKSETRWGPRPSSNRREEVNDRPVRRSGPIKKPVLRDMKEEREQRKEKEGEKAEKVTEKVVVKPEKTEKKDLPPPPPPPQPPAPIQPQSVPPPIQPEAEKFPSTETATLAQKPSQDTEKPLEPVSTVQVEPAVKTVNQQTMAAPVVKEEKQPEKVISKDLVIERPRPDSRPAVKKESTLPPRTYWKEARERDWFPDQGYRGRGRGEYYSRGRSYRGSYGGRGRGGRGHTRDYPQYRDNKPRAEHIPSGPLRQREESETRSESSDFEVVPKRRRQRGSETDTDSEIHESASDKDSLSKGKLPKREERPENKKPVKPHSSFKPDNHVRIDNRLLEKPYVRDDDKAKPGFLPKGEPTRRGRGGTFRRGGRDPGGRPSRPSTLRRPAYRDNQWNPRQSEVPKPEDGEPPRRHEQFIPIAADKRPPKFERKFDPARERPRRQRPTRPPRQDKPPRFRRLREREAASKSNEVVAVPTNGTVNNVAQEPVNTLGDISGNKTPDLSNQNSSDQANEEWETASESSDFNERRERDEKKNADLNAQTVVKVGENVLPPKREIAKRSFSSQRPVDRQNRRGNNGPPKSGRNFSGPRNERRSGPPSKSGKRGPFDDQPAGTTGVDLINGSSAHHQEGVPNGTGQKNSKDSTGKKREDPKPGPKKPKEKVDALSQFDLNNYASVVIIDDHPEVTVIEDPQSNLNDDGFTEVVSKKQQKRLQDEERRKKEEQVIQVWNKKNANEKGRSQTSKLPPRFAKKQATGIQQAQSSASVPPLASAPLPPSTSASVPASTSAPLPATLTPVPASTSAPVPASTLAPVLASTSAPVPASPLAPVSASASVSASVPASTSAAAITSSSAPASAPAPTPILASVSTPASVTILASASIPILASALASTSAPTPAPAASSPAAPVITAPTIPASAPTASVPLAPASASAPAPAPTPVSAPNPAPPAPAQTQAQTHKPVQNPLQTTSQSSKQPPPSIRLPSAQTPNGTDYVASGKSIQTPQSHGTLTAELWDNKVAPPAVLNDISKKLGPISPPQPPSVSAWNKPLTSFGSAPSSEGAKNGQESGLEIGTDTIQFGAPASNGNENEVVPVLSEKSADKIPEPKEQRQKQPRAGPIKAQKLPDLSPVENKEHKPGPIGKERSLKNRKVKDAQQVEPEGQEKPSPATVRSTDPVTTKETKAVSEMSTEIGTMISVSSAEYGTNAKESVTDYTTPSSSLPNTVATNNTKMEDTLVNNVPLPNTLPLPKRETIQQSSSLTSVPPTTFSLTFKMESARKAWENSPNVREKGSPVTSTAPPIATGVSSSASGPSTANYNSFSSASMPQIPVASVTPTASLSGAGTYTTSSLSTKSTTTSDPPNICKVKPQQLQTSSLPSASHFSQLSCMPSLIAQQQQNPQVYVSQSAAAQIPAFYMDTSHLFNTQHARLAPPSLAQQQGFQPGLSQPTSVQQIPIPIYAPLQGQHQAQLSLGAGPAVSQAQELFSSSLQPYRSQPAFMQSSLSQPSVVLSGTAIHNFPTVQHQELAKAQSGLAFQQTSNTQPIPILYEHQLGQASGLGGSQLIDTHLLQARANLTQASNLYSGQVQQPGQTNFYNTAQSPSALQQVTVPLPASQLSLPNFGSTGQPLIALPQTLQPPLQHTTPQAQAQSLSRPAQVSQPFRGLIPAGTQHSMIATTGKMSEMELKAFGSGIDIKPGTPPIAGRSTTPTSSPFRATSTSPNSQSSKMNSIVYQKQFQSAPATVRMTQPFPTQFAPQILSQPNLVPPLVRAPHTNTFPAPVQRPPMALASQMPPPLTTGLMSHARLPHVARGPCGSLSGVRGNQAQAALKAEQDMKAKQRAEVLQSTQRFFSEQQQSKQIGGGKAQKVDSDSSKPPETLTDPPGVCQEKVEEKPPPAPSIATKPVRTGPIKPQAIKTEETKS

| binding [1] | binding [2] | binding [3] | binding [4] | binding [5] | binding [6] | Substance |
| --- | --- | --- | --- | --- | --- | --- |
| binds | binds | binds |  |  |  | PRRC2A (from UniProt P48634 1-2157) |
|  | binds |  | binds |  |  | PRRC2B (from UniProt Q5JSZ5 1-2229) |
| binds | binds | binds | binds | binds | binds | PRRC2C (from UniProt Q9Y520 1-2896) |
|  | binds |  |  |  |  | eIF4G1 (from UniProt Q04637 1-1599) |
